Measured values: publication PMC5709618
Results are given in words; binding and its absence hold for the method and conditions named. In cells and extracts the contact can be indirect. Some binding calls cover weakened binding; strength is not graded here.

Amino acid sequences for entries named in this document (tags omitted).
UniProt Q13131: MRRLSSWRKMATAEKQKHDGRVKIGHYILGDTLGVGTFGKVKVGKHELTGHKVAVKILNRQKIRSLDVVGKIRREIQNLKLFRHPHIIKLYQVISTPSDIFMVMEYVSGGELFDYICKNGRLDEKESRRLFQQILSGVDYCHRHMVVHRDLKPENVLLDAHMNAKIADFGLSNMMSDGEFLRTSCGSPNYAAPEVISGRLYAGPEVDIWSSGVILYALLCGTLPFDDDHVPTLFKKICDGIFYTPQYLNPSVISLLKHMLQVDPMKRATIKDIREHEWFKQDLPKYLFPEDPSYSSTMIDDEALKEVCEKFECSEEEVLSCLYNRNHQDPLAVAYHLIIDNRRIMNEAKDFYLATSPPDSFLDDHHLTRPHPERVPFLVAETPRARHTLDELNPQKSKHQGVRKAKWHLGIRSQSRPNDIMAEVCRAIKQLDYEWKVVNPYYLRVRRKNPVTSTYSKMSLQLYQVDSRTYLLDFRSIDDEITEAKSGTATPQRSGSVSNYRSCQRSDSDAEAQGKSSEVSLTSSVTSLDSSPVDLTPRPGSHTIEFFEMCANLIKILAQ
UniProt Q969Q1: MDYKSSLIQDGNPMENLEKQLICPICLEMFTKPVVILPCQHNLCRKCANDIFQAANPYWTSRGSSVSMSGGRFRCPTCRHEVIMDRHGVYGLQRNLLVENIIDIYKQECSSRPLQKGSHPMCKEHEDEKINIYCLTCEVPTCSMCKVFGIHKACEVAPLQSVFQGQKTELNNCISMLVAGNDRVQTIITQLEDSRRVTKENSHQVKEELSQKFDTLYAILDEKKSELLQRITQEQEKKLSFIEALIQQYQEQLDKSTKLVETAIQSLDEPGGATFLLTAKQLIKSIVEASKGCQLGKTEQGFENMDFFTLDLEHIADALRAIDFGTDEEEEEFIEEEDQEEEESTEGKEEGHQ
UniProt Q7L0R7: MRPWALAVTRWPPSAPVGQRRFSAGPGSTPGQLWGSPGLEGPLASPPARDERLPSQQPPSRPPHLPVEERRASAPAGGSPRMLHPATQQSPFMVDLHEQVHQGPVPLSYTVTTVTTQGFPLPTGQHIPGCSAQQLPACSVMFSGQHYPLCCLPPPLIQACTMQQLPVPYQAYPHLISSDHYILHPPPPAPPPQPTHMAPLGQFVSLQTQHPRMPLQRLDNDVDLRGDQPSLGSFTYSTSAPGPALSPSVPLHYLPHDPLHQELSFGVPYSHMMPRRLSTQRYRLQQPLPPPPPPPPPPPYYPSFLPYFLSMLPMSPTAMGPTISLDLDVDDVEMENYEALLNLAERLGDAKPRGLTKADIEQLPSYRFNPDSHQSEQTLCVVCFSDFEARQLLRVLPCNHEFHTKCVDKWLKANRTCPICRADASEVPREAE

What was measured:
[1] = target: AMPK-α1 (human (endogenous in melanoma cell lines)) (UniProt Q13131); test: co-IP; anti-AMPK-α1 antibody and Gammabind plus sepharose beads added to lysates of parental and BR cells incubated with or without ADI-PEG20 (100 ng/ml) in the presence of MG-132 (10 μM) for 4 hr; SDS-PAGE and immunoblotting
[2] = target: AMPK-α1 (human (endogenous in melanoma cell lines)), Q13131; test: as above; settings: remark: other sources report otherwise

binding [1] | binding [2] | Molecule
no binding |  | MuRF1 (from UniProt Q969Q1 1-353)
binds |  | RING finger 44 (RNF44) (from UniProt Q7L0R7 1-432)
 | no binding | Melanoma-associated antigen 3 (MAGE-A3), P43357 1-314 (protein) MPLEQRSQHCKPEEGLEARGEALGLVGAQAPATEEQEAASSSSTLVEVTLGEVPAAESPDPPQSPQGASSLPTTMNYPLWSQSYEDSSNQEEEGPSTFPDLESEFQAALSRKVAELVHFLLLKYRAREPVTKAEMLGSVVGNWQYFFPVIFSKASSSLQLVFGIELMEVDPIGHLYIFATCLGLSYDGLLGDNQIMPKAGLLIIVLAIIAREGDCAPEEKIWEELSVLEVFEGREDSILGDPKKLLTQHFVQENYLEYRQVPGSDPACYEFLWGPRALVETSYVKVLHHMVKISGGPHISYPPLHEWVLREGEE
no binding |  | Cidea (protein, UniProt O60543 1-219) MEAARDYAGALIRPLTFMGSQTKRVLFTPLMHPARPFRVSNHDRSSRRGVMASSLQELISKTLDALVIATGLVTLVLEEDGTVVDTEEFFQTLGDNTHFMILEKGQKWMPGSQHVPTCSPPKRSGIARVTFDLYRLNPKDFIGCLNVKATMYEMYSVSYDIRCTGLKGLLRSLLRFLSYSAQVTGQFLIYLGTYMLRVLDDKEERPSLRSQAKGRFTCG
